# PMC3554717
# Protein sequences, listed by entry. Tags and fused reporters are not part of them.
# UniProt P41240: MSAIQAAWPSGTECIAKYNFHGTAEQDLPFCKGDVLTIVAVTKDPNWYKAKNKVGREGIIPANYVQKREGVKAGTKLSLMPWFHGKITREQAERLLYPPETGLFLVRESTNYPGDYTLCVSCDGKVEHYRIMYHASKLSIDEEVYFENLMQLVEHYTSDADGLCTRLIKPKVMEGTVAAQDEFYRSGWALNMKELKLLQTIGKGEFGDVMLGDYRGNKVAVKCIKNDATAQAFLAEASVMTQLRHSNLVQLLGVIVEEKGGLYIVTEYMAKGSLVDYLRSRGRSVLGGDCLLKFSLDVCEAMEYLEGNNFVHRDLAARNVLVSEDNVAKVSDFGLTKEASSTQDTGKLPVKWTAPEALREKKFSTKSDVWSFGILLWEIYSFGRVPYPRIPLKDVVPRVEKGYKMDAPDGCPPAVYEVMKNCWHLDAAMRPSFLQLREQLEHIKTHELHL
# Changes are numbered by the printed parent chain. Results are given in words; binding and its absence hold for the method and conditions named. In cells and extracts the contact can be indirect. Some entries that bind do so weakly or less than the wild type. For some assays here: Tags and fused reporters may be left off the sequences shown.
# Legend:
# [1] = target: T1, myc-LYPR-DA (human) (UniProt Q9Y2R2); assay: co-IP; Jurkat cells transfected with myc-LYP and HA-CSK, untreated or treated with PV for 5 min; IP with anti-myc Ab, IB with anti-HA
# T1 sequence: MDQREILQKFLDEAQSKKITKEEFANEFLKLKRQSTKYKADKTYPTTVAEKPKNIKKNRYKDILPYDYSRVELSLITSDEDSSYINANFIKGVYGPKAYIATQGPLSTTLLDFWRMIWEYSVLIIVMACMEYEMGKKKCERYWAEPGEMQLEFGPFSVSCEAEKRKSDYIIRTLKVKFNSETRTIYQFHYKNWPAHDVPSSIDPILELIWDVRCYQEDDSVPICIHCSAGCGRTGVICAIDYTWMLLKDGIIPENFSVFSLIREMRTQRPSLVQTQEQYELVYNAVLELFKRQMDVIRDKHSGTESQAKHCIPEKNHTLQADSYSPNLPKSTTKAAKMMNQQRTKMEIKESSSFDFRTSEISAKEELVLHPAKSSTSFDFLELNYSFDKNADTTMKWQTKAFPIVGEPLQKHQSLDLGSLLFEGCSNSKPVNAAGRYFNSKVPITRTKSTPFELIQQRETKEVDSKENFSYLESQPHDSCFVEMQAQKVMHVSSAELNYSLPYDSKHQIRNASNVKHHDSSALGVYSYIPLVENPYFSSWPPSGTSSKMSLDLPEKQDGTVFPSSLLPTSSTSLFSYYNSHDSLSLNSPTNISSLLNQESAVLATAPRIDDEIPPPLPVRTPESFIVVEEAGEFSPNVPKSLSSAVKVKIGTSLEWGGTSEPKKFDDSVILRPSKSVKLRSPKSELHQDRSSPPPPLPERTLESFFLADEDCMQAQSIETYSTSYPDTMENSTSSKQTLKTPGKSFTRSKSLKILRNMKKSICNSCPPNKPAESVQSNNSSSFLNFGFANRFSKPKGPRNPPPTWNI
# [2] = target: T2, myc-LYPR (human) (UniProt Q9Y2R2); assay: as above
# T2 sequence: T1 sequence with A195D
# [3] = target: T3, myc-LYPW-DA (human) (UniProt Q9Y2R2); assay: as above
# T3 sequence: T1 sequence with R620W
# [4] = target: T4, endogenous LYP (Jurkat) (human (endogenous in Jurkat)) (UniProt Q9Y2R2); assay: co-IP; endogenous proteins, lysates of Jurkat cells treated with PV or stimulated with anti-CD3 and anti-CD28 Abs for 5 min; IP with anti-CSK Ab or anti-LYP Ab, IB against LYP and CSK
# T4 sequence: T1 sequence with A195D
# [5] = target: T4, endogenous LYP (Jurkat) (human (endogenous in Jurkat)); assay: co-IP; endogenous proteins, lysates of untreated (resting) Jurkat cells; IP with anti-CSK Ab or anti-LYP Ab, IB against LYP and CSK
binding [1],binding [2],binding [3],binding [4],binding [5],Substance
binds,binds,binds,,,HA-CSK wild type (from UniProt P41240 1-450) (enzyme)
,,,binds,binds weakly,endogenous CSK (Jurkat) (from UniProt P41240 1-450) (enzyme)
